Reference: PMC5283830, “Suppression of C9orf72 RNA repeat-induced neurotoxicity by the ALS-associated RNA-binding protein Zfp106”
Results are given in words; binding and its absence hold for the method and conditions named. Binding seen in cells or lysates may run through a third protein. A yes stands for co-enrichment or nearness to the bait. Other partners may have been found.

Chains of the proteins cited; added tags and fusions are not shown.
UniProt O88466: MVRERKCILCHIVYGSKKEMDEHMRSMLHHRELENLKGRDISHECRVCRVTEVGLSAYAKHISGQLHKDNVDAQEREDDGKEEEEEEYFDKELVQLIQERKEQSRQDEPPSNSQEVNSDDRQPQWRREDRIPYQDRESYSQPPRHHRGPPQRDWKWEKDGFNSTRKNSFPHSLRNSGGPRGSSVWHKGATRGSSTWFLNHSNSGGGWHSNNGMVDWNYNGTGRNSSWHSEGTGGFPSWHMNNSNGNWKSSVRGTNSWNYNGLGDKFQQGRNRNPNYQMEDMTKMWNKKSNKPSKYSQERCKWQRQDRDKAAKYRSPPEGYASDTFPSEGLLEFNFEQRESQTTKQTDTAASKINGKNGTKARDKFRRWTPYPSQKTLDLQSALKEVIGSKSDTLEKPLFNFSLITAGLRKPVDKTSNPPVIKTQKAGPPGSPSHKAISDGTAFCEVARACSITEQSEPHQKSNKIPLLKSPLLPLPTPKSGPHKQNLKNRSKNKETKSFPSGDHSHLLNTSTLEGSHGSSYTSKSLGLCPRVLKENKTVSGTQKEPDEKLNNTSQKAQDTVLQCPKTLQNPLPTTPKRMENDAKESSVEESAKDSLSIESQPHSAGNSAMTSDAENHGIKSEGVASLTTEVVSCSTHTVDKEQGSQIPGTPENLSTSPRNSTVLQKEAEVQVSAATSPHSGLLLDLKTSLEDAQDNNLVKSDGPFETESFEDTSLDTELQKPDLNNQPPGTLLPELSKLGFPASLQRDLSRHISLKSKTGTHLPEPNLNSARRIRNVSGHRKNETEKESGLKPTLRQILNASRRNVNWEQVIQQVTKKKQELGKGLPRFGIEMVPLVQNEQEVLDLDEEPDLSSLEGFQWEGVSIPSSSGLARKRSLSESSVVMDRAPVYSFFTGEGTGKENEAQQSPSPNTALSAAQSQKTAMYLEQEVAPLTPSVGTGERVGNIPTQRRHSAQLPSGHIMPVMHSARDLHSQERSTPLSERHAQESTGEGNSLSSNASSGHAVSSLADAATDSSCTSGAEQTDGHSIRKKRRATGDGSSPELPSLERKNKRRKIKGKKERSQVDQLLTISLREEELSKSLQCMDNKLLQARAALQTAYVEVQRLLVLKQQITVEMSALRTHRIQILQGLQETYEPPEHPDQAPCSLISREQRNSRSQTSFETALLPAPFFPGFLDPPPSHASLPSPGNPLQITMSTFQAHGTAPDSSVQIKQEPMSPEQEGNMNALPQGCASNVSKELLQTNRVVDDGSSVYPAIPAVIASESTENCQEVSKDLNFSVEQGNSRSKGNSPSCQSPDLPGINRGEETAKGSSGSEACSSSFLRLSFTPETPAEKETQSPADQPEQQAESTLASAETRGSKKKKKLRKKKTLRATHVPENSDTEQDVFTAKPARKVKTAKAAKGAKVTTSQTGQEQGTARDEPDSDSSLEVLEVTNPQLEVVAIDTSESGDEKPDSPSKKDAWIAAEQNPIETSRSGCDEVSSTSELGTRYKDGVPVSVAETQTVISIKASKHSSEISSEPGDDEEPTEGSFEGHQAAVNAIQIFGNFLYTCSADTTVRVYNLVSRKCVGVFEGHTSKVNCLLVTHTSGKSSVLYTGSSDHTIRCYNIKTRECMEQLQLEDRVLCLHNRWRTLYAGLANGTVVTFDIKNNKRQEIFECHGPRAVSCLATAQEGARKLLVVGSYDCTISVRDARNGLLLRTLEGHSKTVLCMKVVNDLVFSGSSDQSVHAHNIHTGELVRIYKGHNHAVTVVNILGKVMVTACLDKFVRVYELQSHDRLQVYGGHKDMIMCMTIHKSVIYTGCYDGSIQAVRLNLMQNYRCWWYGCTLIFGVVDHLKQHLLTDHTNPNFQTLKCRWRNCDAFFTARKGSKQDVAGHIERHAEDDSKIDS
UniProt Q13148: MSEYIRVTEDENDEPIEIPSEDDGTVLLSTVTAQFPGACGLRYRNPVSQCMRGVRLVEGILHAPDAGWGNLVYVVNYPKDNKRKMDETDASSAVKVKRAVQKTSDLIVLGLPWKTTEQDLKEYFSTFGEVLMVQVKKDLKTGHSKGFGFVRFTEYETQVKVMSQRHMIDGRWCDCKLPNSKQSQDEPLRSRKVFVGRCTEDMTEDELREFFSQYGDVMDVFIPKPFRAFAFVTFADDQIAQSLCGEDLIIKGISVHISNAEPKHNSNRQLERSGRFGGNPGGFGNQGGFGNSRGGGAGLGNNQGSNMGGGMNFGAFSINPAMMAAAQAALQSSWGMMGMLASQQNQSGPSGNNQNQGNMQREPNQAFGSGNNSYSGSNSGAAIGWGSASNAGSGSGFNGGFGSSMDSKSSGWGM
UniProt P35637: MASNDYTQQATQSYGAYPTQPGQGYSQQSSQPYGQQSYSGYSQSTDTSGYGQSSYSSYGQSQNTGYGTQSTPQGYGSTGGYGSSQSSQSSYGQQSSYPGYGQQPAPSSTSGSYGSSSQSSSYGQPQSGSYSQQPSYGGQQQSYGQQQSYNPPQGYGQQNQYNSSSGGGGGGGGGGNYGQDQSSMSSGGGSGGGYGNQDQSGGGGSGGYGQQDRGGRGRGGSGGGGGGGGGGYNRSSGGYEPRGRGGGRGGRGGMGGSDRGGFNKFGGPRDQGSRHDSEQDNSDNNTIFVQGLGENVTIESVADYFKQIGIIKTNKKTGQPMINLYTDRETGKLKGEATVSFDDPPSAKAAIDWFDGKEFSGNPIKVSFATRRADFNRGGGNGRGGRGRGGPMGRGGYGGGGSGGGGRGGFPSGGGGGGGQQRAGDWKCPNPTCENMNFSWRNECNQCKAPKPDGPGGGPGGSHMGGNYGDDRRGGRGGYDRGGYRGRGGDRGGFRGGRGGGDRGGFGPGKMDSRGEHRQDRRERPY

B1: Nup107 (protein, UniProt P57740 1-925)
chain: MDRSGFGEISSPVIREAEVTRTARKQSAQKRVLLQASQDENFGNTTPRNQVIPRTPSSFRQPFTPTSRSLLRQPDISCILGTGGKSPRLTQSSGFFGNLSMVTNLDDSNWAAAFSSQRSGLFTNTEPHSITEDVTISAVMLREDDPGEAASMSMFSDFLQSFLKHSSSTVFDLVEEYENICGSQVNILSKIVSRATPGLQKFSKTASMLWLLQQEMVTWRLLASLYRDRIQSALEEESVFAVTAVNASEKTVVEALFQRDSLVRQSQLVVDWLESIAKDEIGEFSDNIEFYAKSVYWENTLHTLKQRQLTSYVGSVRPLVTELDPDAPIRQKMPLDDLDREDEVRLLKYLFTLIRAGMTEEAQRLCKRCGQAWRAATLEGWKLYHDPNVNGGTELEPVEGNPYRRIWKISCWRMAEDELFNRYERAIYAALSGNLKQLLPVCDTWEDTVWAYFRVMVDSLVEQEIQTSVATLDETEELPREYLGANWTLEKVFEELQATDKKRVLEENQEHYHIVQKFLILGDIDGLMDEFSKWLSKSRNNLPGHLLRFMTHLILFFRTLGLQTKEEVSIEVLKTYIQLLIREKHTNLIAFYTCHLPQDLAVAQYALFLESVTEFEQRHHCLELAKEADLDVATITKTVVENIRKKDNGEFSHHDLAPALDTGTTEEDRLKIDVIDWLVFDPAQRAEALKQGNAIMRKFLASKKHEAAKEVFVKIPQDSIAEIYNQCEEQGMESPLPAEDDNAIREHLCIRAYLEAHETFNEWFKHMNSVPQKPALIPQPTFTEKVAHEHKEKKYEMDFGIWKGHLDALTADVKEKMYNVLLFVDGGWMVDVREDAKEDHERTHQMVLLRKLCLPMLCFLLHTILHSTGQYQECLQLADMVSSERHKLYLVFSKEELRKLLQKLRESSLMLLDQGLDPLGYEIQL

Each molecule was assayed against 3×FLAG-2×STREP-Zfp106 (mouse) (UniProt O88466) (assay: affinity purification with mass spectrometry; 3×FLAG-2×STREP-Zfp106 from nuclear extracts of transfected HEK293T cells, benzonase digestion (100 U/ml, 30 min, 1 mM MgCl2), anti-FLAG(M2) magnetic beads 2 hr at 4°C, elution with 3×FLAG peptide, LC-MS/MS; MiST scoring against control baits, top 5% MiST score).

binding, binds:
TDP-43 (from UniProt Q13148 1-414)
FUS (from UniProt P35637 1-526)
B1
